The list shows a part of the results.
compound: C/C(=N\NC(=O)C1=CC(=CC=C1)S(=O)(=O)N2CCOCC2)/C3=C(C=CC(=C3)Cl)O; assay: log2 fold change, soluble protein after heating vs DMSO (PISA); higher = thermal stabilisation; K562 lysate, 10 uM; active = over 0.2 and 3.5 SD of the protein, either way, in both replicates (recomputed)
Outline: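 The values are log-two fold changes in thermal stability compared with solvent controls and come from duplicates. They were obtained by TMTpro 16plex LC-MS/MS, with channel sums equalised, on the supernatant after 21,000xg for 90 min. That supernatant came from crude K562 extract at 1 mg/mL protein treated with 10 μM compound for 30 min, heated for 3 min across 48°C-58°C, pooled and brought to 0.5% NP-40 at 4°C.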

The chains behind the UniProt entries cited, without tags or fusion partners. Where a name states a change or a piece, a line headed by the entry shows the natural chain unless it says otherwise.
UniProt P56377: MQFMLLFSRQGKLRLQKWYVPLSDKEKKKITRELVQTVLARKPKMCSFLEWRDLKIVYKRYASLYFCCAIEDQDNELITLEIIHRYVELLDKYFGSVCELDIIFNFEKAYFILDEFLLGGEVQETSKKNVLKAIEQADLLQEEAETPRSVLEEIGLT
UniProt P00352: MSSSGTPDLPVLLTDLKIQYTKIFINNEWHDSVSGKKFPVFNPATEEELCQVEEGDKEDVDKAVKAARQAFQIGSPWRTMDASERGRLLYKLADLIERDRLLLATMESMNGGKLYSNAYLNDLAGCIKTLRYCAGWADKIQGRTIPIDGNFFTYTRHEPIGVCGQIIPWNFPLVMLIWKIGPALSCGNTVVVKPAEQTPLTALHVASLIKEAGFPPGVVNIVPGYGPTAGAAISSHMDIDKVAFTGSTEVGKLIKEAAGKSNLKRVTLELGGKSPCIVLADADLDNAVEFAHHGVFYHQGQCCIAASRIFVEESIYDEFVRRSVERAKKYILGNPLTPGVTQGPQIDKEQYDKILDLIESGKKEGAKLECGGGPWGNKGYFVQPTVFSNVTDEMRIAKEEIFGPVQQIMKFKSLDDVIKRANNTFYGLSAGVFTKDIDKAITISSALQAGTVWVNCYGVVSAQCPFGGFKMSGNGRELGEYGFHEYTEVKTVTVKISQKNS
UniProt P30837: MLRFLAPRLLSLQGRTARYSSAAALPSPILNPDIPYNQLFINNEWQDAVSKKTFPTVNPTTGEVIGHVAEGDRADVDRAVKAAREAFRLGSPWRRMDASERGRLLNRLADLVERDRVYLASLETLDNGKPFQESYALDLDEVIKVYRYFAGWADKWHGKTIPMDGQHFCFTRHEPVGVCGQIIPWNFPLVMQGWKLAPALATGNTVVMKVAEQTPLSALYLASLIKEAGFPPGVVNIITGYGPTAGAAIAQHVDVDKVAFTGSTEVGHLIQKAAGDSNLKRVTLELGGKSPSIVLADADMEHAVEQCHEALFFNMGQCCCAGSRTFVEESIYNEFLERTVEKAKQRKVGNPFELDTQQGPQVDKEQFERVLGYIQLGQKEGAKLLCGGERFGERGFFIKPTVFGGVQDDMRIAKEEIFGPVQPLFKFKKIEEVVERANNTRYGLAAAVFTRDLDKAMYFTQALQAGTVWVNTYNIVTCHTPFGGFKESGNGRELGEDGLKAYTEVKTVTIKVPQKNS
UniProt Q9UPM8: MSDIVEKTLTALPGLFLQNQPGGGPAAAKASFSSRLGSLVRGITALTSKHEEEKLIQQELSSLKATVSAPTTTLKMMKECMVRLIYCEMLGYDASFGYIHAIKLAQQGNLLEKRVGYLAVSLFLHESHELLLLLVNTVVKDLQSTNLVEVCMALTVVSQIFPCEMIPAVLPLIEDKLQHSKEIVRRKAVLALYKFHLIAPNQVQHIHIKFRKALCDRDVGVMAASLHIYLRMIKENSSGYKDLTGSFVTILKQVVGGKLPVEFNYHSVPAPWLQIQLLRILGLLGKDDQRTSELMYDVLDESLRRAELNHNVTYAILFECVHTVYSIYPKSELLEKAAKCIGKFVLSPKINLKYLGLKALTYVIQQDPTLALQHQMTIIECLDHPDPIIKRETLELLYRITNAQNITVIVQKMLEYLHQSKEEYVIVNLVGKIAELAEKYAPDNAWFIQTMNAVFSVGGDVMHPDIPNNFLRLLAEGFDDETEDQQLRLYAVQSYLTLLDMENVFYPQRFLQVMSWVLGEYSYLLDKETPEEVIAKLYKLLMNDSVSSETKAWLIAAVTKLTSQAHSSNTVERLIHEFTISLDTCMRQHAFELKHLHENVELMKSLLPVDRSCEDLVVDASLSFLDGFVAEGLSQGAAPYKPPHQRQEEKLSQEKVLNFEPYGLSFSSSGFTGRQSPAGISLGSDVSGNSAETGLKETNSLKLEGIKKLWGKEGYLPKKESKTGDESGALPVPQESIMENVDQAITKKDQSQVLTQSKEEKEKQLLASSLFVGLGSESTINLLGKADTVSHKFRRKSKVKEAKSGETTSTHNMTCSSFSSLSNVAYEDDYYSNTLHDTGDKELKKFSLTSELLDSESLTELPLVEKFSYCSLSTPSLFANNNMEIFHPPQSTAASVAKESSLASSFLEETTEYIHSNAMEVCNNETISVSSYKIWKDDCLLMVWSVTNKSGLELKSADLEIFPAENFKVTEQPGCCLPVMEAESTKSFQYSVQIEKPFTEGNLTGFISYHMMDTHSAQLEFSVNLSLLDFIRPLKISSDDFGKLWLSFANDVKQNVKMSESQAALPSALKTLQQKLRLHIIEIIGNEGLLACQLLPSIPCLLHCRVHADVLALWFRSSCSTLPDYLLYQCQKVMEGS
UniProt Q8NB46: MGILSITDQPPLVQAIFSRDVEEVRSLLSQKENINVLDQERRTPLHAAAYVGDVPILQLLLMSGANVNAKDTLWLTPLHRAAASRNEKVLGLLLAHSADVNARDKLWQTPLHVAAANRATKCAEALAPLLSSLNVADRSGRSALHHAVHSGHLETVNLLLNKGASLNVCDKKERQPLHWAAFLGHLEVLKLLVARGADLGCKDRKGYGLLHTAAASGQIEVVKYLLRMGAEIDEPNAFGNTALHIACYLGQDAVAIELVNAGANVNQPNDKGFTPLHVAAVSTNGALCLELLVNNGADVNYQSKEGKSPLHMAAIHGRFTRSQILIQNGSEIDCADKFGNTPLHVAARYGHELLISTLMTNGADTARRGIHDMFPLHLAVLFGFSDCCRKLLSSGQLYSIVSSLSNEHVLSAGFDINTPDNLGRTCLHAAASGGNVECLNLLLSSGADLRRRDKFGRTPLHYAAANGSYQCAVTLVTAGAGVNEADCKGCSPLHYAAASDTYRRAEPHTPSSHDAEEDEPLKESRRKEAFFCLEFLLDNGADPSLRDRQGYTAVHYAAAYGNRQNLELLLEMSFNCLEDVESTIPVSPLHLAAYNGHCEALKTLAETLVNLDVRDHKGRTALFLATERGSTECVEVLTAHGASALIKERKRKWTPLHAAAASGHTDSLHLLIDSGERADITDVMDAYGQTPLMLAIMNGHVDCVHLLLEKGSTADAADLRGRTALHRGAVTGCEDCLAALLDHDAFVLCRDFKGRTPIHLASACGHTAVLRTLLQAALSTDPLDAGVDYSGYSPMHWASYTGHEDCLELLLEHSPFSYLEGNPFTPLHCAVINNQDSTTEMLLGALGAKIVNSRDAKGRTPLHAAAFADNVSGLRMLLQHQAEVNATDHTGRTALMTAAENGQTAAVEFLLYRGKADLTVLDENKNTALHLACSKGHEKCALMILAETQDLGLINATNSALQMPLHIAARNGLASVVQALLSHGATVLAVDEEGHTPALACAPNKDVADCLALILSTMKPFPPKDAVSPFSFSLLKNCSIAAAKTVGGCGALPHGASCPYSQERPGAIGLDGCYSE
UniProt P20073: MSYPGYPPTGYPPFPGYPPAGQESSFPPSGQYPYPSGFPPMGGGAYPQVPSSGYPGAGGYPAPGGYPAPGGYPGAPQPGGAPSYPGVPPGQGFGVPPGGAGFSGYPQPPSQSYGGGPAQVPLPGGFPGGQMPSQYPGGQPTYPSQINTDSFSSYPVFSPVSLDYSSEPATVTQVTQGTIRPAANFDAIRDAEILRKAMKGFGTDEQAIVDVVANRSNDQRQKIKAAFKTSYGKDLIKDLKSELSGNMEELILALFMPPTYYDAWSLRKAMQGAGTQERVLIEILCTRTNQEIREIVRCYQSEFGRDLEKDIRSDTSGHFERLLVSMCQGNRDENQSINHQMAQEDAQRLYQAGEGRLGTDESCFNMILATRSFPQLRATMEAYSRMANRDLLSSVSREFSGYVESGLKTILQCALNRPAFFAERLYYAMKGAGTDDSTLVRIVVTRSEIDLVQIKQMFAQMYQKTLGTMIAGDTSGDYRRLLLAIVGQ
UniProt Q01432: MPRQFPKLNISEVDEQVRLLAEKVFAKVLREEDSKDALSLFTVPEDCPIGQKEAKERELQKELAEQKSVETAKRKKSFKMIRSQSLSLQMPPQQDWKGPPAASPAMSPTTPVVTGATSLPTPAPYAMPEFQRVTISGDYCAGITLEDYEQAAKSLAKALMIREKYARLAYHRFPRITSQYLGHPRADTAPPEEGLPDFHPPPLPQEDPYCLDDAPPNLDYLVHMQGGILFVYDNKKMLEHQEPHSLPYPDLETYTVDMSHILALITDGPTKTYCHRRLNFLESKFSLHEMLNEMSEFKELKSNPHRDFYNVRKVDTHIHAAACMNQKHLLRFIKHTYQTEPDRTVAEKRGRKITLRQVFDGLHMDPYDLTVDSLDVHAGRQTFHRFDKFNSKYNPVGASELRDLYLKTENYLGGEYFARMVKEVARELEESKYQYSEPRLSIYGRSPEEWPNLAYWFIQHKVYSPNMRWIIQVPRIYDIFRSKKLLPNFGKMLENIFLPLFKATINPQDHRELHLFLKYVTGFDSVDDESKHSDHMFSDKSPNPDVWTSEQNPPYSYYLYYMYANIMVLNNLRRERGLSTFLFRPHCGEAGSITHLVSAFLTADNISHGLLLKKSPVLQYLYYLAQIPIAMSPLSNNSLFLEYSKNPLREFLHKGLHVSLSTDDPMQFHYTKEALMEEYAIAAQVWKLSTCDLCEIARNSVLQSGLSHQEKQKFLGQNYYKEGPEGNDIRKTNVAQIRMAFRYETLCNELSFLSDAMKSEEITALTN
UniProt P07355, whole entry, looked up: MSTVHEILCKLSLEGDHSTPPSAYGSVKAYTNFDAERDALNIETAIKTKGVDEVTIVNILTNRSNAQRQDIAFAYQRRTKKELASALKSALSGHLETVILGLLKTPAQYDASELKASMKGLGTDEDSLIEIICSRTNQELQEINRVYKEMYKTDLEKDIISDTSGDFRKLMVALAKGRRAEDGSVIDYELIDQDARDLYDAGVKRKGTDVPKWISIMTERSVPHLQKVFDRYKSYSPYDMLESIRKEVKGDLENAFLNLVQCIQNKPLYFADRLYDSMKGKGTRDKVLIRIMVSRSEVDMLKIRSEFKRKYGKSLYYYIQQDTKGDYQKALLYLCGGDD
UniProt P08133: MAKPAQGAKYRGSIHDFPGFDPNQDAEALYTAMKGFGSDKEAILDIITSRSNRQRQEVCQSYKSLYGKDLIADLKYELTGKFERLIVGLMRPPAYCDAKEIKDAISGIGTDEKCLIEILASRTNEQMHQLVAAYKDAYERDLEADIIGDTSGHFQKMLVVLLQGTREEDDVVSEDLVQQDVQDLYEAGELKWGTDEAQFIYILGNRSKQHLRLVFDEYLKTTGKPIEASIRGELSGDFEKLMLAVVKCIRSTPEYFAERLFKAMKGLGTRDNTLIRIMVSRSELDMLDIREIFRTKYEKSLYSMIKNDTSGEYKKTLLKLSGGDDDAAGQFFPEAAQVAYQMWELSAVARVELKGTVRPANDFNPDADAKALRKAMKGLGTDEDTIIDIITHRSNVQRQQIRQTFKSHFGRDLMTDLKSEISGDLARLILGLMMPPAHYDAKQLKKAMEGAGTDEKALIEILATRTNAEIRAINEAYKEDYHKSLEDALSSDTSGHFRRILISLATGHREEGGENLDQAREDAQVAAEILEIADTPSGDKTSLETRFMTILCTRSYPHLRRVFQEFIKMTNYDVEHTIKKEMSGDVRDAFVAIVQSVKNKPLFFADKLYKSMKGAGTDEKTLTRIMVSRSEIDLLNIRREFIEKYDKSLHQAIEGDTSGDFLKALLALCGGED
UniProt P30038: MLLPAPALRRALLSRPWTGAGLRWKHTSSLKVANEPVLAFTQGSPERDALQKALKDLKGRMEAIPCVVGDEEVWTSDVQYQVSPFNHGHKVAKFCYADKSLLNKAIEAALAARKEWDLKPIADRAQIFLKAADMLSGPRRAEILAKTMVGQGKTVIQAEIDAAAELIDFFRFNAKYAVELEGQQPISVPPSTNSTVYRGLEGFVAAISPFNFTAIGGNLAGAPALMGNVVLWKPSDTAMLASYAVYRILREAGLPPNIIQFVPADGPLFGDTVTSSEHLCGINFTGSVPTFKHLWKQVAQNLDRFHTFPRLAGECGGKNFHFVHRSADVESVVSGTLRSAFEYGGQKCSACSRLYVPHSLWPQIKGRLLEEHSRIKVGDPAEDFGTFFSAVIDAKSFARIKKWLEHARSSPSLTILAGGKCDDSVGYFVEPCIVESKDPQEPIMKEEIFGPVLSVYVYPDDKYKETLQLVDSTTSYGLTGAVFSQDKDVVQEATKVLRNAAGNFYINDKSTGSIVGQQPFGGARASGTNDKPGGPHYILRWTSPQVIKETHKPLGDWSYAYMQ

log2 fold change, inactive:
ANKRD54 (UniProt Q6NXT1) 0.01
AP1S2 isoform 2 (UniProt P56377) -0.095
ALDH1A1 (UniProt P00352) 0.044
ALDH6A1 (UniProt Q02252) 0.064
ANXA11 (UniProt P50995) 0.031
ANO6 (UniProt Q4KMQ2) 0.039
ALDH1B1 (UniProt P30837) 0.027
AP4E1 (UniProt Q9UPM8) -0.104
ALG12 (UniProt Q9BV10) -0.043
ANKFY1 isoform 4 (UniProt Q9P2R3) 0.006
ANKRD52 (UniProt Q8NB46) -0.288
AP3M2 (UniProt P53677) 0.061
ALYREF (UniProt Q86V81) -0.107
ANXA7 (UniProt P20073) 0.007
AKT1S1 isoform 3 (UniProt Q96B36) -0.219
AMPD3 isoform 4 (UniProt Q01432) 0.048
AP2B1 isoform 2 (UniProt P63010) 0.004
ALKBH8 isoform 4 (UniProt Q96BT7) -0.099
AP3M1 (UniProt Q9Y2T2) -0.135
ANXA2 isoform 2 (UniProt P07355) 0.041
ANXA6 (UniProt P08133) 0.052
ALDH4A1 (UniProt P30038) 0.045

Already shown: an excerpt of the list.
log2 fold change, inactive:
AKT1S1 isoform 3 (UniProt Q96B36) -0.219
AMPD3 isoform 4 (UniProt Q01432) 0.048

Source: the supplement of paper PMC10849652
